# According to PubChem BioAssay AID2685 (National Center for Advancing Translational Sciences (NCATS), 2010):
# Some of the results follow. Further columns of the screen follow, without active or inactive calls. Compounds called inactive in the main read-out are mostly missing here. Potencies come from curve fits of mixed quality, noted in brackets.
# Test: qHTS Assay for Lipid Storage Modulators in Drosophila S3 Cells;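 on cell number change: cells counted by Cell Tracker Red CMTPX staining in the red channel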
# Settings: BODIPY lipid droplet fluorescence, 18-24 h; for cell number change: measured here: cell count max response, cells fed with added oleic acid
# Method in brief: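 Laser-scanning cytometry quantifies lipid droplet accumulation (500–530 nm total intensity; droplet/cell object ratio) in oleic acid-fed (400 uM added) Drosophila S3 cells treated with a concentration series. 20 uM Triacsin C defined 100% inhibition.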
# [1] = measured here: cell number channel AC50, cells fed with added oleic acid
# [2] = measured here: lipid fluorescence (Fed channel) AC50, cells fed with added oleic acid
SMILES,AC50 [1],AC50 [2],cell number change
CN(C)c1nc(SCc2ccc(Cl)cc2)nc2c1CCCC2,"1640 nM [rising, partial curve]","6510 nM [rising, single point]",–
CCOC(=O)c1sc(NC(=O)CSc2nnc(-c3ccco3)n2CC)c(C(=O)OCC)c1C,"651 nM [rising, single point]","130 nM [rising, full curve, poor fit]",–
COc1ccc(N2CCN(C(=O)c3cn(CC4CCCCC4)nn3)CC2)cc1,–,"6510 nM [rising, single point]",6.8%
COc1cccc(C(=O)N2CCN(C(=O)C3CCCO3)CC2)c1 (stereo not given),–,"16400 nM [rising, single point]",-27.4%
O=C(COC(=O)CCN=C1NS(=O)(=O)c2ccccc21)NNC(=O)c1ccc(Cl)cc1,–,"14600 nM [rising, partial curve, poor fit]",-4.4%
O=C(CCN1CCN(S(=O)(=O)c2ccc(Cl)cc2)CC1)Nc1ccc(F)cc1,–,–,3.83%
CCOc1cc(/C=N/n2cnnc2)ccc1OS(=O)(=O)c1ccc(C)cc1,–,"29100 nM [falling, single point]",-18.2%
CCN1C(=NCc2ccc(OC)cc2)N[C@@H](CCc2ccccc2)[C@H](C(=O)NCc2ccc(OC)cc2)[C@H]1C,–,"731 nM [falling, full curve]",-0.689%
COc1ccc(CC(=O)NCCc2ccc(OC)c(OC)c2)cc1,–,"580 nM [falling, full curve]",-29.4%
CCc1ccc(N2CC(C(=O)OCC(=O)NNC(=O)c3ccccc3)CC2=O)cc1 (stereo not given),"116 nM [falling, full curve, poor fit]","23100 nM [falling, partial curve, poor fit]",-18.5%
COc1ccc(C)cc1NC(=O)C(C)N(c1ccc(C)cc1)S(C)(=O)=O (stereo not given),–,"14600 nM [falling, single point]",-15.9%
Cc1cccc(NC(=O)CSc2nnc(C3CC3)n2CC2CCCO2)c1C (stereo not given),–,–,15%
CCCCN1C[C@H](Cc2ccccc2)[C@@H](CC(=O)Nc2ccccc2)C1=O,–,"29100 nM [falling, single point]",-4.53%
Cc1cc2[nH]c(=O)c(=O)[nH]c2cc1S(=O)(=O)N1CCN(c2ccccc2)CC1,–,"2310 nM [rising, full curve, poor fit]",1.15%
COc1ccccc1CCNC(=O)C(=O)NCC1OCCCN1S(=O)(=O)c1ccc(F)cc1C (stereo not given),–,"6510 nM [rising, partial curve, poor fit]",11.1%
COc1ccc(C2C3C=CCC(c4cccc(-c5ccc(C)cc5)c4)C3C(=O)N2Cc2ccccc2)cc1Cl (stereo not given),–,"6510 nM [falling, single point]",–
Cn1c(SCc2ccc(Cl)cc2Cl)nc(C(F)(F)F)cc1=O,"73.1 nM [falling, full curve, poor fit]",–,-28.3%
CCCCNS(=O)(=O)c1ccc(OC)c(Cl)c1Cl,–,–,-6.97%
COc1ccc(C2/C=C\CN(C(=O)Nc3ccccc3-c3ccccc3)CC(=O)N2Cc2ccc(F)cc2)cc1 (stereo not given),–,"3660 nM [rising, full curve, poor fit]",22%
COc1cc(CNCCCCO)ccc1OCc1ccccc1F,–,–,-15.7%

SMILES,AC50 [1],AC50 [2],cell number change
Cc1cc(C)c(C)c(S(=O)(=O)N2CCN(c3ncnc4ccccc34)CC2)c1C,–,"366 nM [falling, full curve]",-26.3%
CCN(CC)CCn1c(=N)n(CC(O)c2ccc(OC)c(OC)c2)c2ccccc21 (stereo not given),"920 nM [falling, full curve]","1300 nM [falling, partial curve]",0.298%
Cc1ccc(S(=O)(=O)c2c(CO)c(-c3ccccc3)nn2C)cc1,–,"6510 nM [falling, single point]",18.2%
CC(C)N(CCn1c(SCC(=O)Nc2cccnc2Cl)nc2ccccc2c1=O)C(C)C,–,"2910 nM [rising, partial curve]",-2.89%
Cc1ccc(C2(C)NC(=O)N(CC(=O)Nc3cc(S(=O)(=O)N4CCCCC4)ccc3OC(C)C)C2=O)cc1 (stereo not given),–,–,-3.35%
Nc1c(C(=O)Nc2ccc3c(c2)OCCO3)nnn1Cc1cccc(Cl)c1,–,–,-75%
CCC(=O)Nc1ccc(C(=O)OCc2ccccc2Cl)cc1,"29100 nM [rising, single point]",–,80.2%
O=C(Nc1ccc(CN2CCCCC2)cc1)c1c(F)c(F)c(F)c(F)c1F,"4610 nM [falling, partial curve]",–,-5.54%
CC(=O)C1=C(NC(=O)c2ccccc2F)C[C@@H]2[C@H]1C2(C)C,–,"13000 nM [rising, partial curve]",4.58%
CCOc1cc(N2CCOCC2)c(OCC)cc1NC(=O)Cc1cn2ccsc2n1,–,"5170 nM [rising, full curve, poor fit]",2.29%
Cc1ccc(NC(=O)COC(=O)c2cccc(OC(F)F)c2)cc1S(=O)(=O)N1CCCCC1,"4.61 nM [rising, full curve, poor fit]","23100 nM [falling, partial curve]",-14.6%
CCC1(C)Cc2nc(Cl)c(C#N)cc2CO1 (stereo not given),"580 nM [falling, full curve]","731 nM [falling, full curve]",-4.89%
COc1ccc(F)cc1S(=O)(=O)NC(Cc1ccccc1)C(N)=O (stereo not given),–,–,-2.3%
CCN1C(=O)/C(=C\N2CCCCCC2)SC1=S,–,–,-5.47%
COc1ccc(S(=O)(=O)CCc2nnc(NC(C)=O)s2)cc1,"2310 nM [falling, full curve]",–,-32.2%
CSc1n[nH]c(NC(=O)c2c(-c3c(Cl)cccc3Cl)noc2C)n1,–,"4.61 nM [falling, full curve, poor fit]",-4.13%
COc1ccc(-c2csc(NC(=O)CN3C(=O)C4CC=CCC4C3=O)n2)cc1 (stereo not given),–,"32600 nM [falling, single point]",-24.2%
O=C(CCSc1ccccc1)Nc1nc2c(s1)COc1ccccc1-2,"14600 nM [rising, single point]",–,35.9%
CN(Cc1ccccc1)C(=O)CCS(=O)(=O)c1cc2c(cc1Cl)NC(=O)CO2,–,"116 nM [rising, full curve, poor fit]",1.73%
O=C(Nc1ccncc1)Nc1cccc(Cl)c1Cl,–,"29100 nM [rising, single point]",-13.9%

SMILES,AC50 [1],AC50 [2],cell number change
COc1ccc(NC2CCCN(C(=O)c3ccc(OC)o3)C2)cc1 (stereo not given),"4610 nM [rising, partial curve, poor fit]",–,18.8%
COc1cc(C(=O)OCn2nnc3ccccc3c2=O)cc(OC)c1OC,"2310 nM [rising, partial curve]",–,56.1%
CCn1c2ccccc2c2cc(NC(=O)c3ccco3)ccc21,–,"461 nM [rising, partial curve]",-8.52%
COc1ccccc1C(=O)NC(=S)NNC(=O)c1sc2ccccc2c1Cl,"3660 nM [rising, full curve, poor fit]","3660 nM [rising, single point]",31.6%
Cc1oc2ccc(NS(=O)(=O)c3ccccc3)cc2c1C(=O)Nc1ccccc1,–,"1300 nM [rising, partial curve, poor fit]",16.5%
OC(COc1ccccc1)CSc1ncn[nH]1 (stereo not given),–,"461 nM [falling, full curve, poor fit]",2.5%
CC(NC(=O)Nc1ccc2c(c1)OCO2)C1CCCO1 (stereo not given),–,"8200 nM [rising, partial curve]",3.37%
CN(C)C(=O)c1ccc(NC(=O)COC(=O)Cn2cc(C(F)(F)F)ccc2=O)cc1,–,"29100 nM [falling, single point]",4.9%
COc1cc(/C=C2\SC(=S)N(CCC(=O)N3CCCCC3)C2=O)cc(OC)c1OC,–,–,-3.81%
O=C(NC(Cc1ccccc1)C(=O)O)OCc1ccccc1 (stereo not given),–,"411 nM [falling, full curve, poor fit]",0.775%
COc1ccc(CNC(=O)c2ccc(CS(=O)(=O)c3ccc(C)cc3)o2)cc1,–,–,-12.5%
CC1CCCC(NC(=O)CCCn2ncn3c(cc4occc43)c2=O)C1C (stereo not given),–,"18400 nM [rising, partial curve]",-9.54%
COc1cc(C)ccc1OCc1cc(C(=O)N2CCCCCC2)no1,"517 nM [rising, single point]","517 nM [rising, partial curve, poor fit]",-0.216%
O=C(Nc1nnc(SCc2ccccc2)s1)c1ccco1,–,–,51%
COCCOC(=O)c1c(C)n(C)c2ccc(OC(=O)c3c(OC)cccc3OC)cc12,–,"29100 nM [rising, single point]",14.4%
CSc1nnc(CSc2cc(C)nc(N(C)C)n2)o1,"920 nM [rising, full curve, poor fit]","1160 nM [rising, partial curve]",8.76%
O=C(N/N=C\CCc1ccccc1)c1ccco1,"9200 nM [rising, partial curve, poor fit]",–,30.5%
COc1ccc(-c2sc(NC(C)=O)nc2-c2ccccc2)cc1,–,"1640 nM [rising, full curve, poor fit]",16.8%
CCCC(=O)Nc1nnc(SCC(=O)Nc2ccc3c(c2)OCO3)s1,"29100 nM [rising, single point]",–,170%
CCOC(=O)N1CCN(C(=O)CSCC(=O)Nc2nc(-c3ccc(OC)cc3)cs2)CC1,"1840 nM [rising, partial curve]","1460 nM [rising, partial curve]",–

# At a glance, 16 of the compounds above:
SMILES,AC50 [1],AC50 [2],cell number change
CCOc1cc(/C=N/n2cnnc2)ccc1OS(=O)(=O)c1ccc(C)cc1,–,"29100 nM [falling, single point]",-18.2%
CCN1C(=NCc2ccc(OC)cc2)N[C@@H](CCc2ccccc2)[C@H](C(=O)NCc2ccc(OC)cc2)[C@H]1C,–,"731 nM [falling, full curve]",-0.689%
COc1ccc(CC(=O)NCCc2ccc(OC)c(OC)c2)cc1,–,"580 nM [falling, full curve]",-29.4%
CCc1ccc(N2CC(C(=O)OCC(=O)NNC(=O)c3ccccc3)CC2=O)cc1 (stereo not given),"116 nM [falling, full curve, poor fit]","23100 nM [falling, partial curve, poor fit]",-18.5%
COc1ccc(C)cc1NC(=O)C(C)N(c1ccc(C)cc1)S(C)(=O)=O (stereo not given),–,"14600 nM [falling, single point]",-15.9%
Cc1cccc(NC(=O)CSc2nnc(C3CC3)n2CC2CCCO2)c1C (stereo not given),–,–,15%
CCCCN1C[C@H](Cc2ccccc2)[C@@H](CC(=O)Nc2ccccc2)C1=O,–,"29100 nM [falling, single point]",-4.53%
Cc1cc2[nH]c(=O)c(=O)[nH]c2cc1S(=O)(=O)N1CCN(c2ccccc2)CC1,–,"2310 nM [rising, full curve, poor fit]",1.15%
COc1ccccc1CCNC(=O)C(=O)NCC1OCCCN1S(=O)(=O)c1ccc(F)cc1C (stereo not given),–,"6510 nM [rising, partial curve, poor fit]",11.1%
COc1ccc(C2C3C=CCC(c4cccc(-c5ccc(C)cc5)c4)C3C(=O)N2Cc2ccccc2)cc1Cl (stereo not given),–,"6510 nM [falling, single point]",–
Cn1c(SCc2ccc(Cl)cc2Cl)nc(C(F)(F)F)cc1=O,"73.1 nM [falling, full curve, poor fit]",–,-28.3%
CCCCNS(=O)(=O)c1ccc(OC)c(Cl)c1Cl,–,–,-6.97%
COc1ccc(C2/C=C\CN(C(=O)Nc3ccccc3-c3ccccc3)CC(=O)N2Cc2ccc(F)cc2)cc1 (stereo not given),–,"3660 nM [rising, full curve, poor fit]",22%
COc1cc(CNCCCCO)ccc1OCc1ccccc1F,–,–,-15.7%
Cc1cc(C)c(C)c(S(=O)(=O)N2CCN(c3ncnc4ccccc34)CC2)c1C,–,"366 nM [falling, full curve]",-26.3%
CCN(CC)CCn1c(=N)n(CC(O)c2ccc(OC)c(OC)c2)c2ccccc21 (stereo not given),"920 nM [falling, full curve]","1300 nM [falling, partial curve]",0.298%
